# Primary screen of a compound library

Sequences of proteins named here, by UniProt entry; tags and fusion partners are left off.
UniProt E9BF75, entry or part of it: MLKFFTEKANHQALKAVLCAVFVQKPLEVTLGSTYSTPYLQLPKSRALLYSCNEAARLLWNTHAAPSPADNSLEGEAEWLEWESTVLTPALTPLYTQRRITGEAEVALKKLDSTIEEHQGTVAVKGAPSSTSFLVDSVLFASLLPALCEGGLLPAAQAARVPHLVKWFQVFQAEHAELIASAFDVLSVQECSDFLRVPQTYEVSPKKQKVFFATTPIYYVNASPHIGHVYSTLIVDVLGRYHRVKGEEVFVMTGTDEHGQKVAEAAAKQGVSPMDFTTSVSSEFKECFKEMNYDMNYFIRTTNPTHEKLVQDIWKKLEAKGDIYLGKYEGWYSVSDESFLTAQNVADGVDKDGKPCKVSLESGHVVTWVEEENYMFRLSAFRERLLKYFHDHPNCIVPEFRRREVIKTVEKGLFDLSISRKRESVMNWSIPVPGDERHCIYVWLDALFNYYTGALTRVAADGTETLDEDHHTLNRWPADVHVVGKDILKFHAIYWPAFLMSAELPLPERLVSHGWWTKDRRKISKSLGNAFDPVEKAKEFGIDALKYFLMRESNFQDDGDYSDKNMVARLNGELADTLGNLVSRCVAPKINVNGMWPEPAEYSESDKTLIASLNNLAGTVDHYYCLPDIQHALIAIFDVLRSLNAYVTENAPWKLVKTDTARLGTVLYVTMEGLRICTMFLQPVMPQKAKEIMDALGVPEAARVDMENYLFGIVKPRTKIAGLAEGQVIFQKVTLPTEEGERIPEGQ

Data taken from ChEMBL document CHEMBL3988442, “University of Dundee, Small-Polar-MMV Screening Library” (2021).

All values are in %. The record does not define 0% and 100%; most values in the screen are far below 50% and negative numbers occur (in some assays of this library far below -100). Compounds were drawn at random from those tested, without regard to their results.

LdMetRS: 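Primary screen of methionyl-tRNA synthetase; the read-out is not stated. Target: Methionyl-tRNA synthetase (putative), Leishmania donovani (UniProt E9BF75). The test concentration is not given. The values are filed as inhibition. Of about 68,000 compounds tested this way, about 24 (0.035%) reached 50% or more in at least one test.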
Mtb heat-shock: 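Assay on Mycobacterium tuberculosis, filed only as a heat shock assay from Cornell; the read-out is not stated. The concentration is filed as 10 mM, unlikely as a test dose, so the dose is not known. The record gives no direction; compounds that gave an IC50 in retests scored well above the rest, so higher reads as stronger inhibition. Size under these conditions: about 69,000 compounds, about 930 of them at 50% or above in at least one test.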

O=C(O)C(F)(F)F.[H][C@]12CN(c3ncccn3)C[C@@]1(C(=O)O)CCCN(C1CCOC1)C2 (some centres unmarked) gave Mtb heat-shock: 16.56%.
Cn1cc(CN2C[C@H]3CN(c4cncnc4)C(=O)[C@H]3C2)cn1 gave LdMetRS: 11.83%.
Cc1cc(C(F)(F)F)nc(CNc2cc(C)nc3cc(C)nn23)n1 gave LdMetRS: 3.069%; Mtb heat-shock: 65.55%.
Cc1cc(C(=O)NC(C)Cc2ccc(N(C)C)cc2)n(C)n1 (centres unmarked) gave LdMetRS: 9.244%; Mtb heat-shock: 9.5%.
CNS(=O)(=O)Cc1ccc(CNc2cncc(-n3cccn3)n2)cc1 gave LdMetRS: 10.93%; Mtb heat-shock: 13.12%.
CCC(NC(=O)CCCNC(=O)OC)c1cc(F)ccc1F (centres unmarked) gave LdMetRS: 12.24%; Mtb heat-shock: -18.52%.
O=C(c1ccccn1)N1Cc2nccn2CC(COc2cccnc2)C1 (centres unmarked) gave LdMetRS: 7.95%; Mtb heat-shock: 4.539%.
CC(C)CCC(=O)N(C)CC(=O)Nc1ccc(Br)cn1 gave LdMetRS: 26.88%; Mtb heat-shock: -5.592%.
CC(C)Cn1nnnc1SC(C(=O)NCc1cccnc1)C(C)C (centres unmarked) gave LdMetRS: 15.1%; Mtb heat-shock: -10.16%.
N#Cc1csc(CNCCOc2ccccc2)c1 gave LdMetRS: 9.025%; Mtb heat-shock: 6.457%.
O=C([C@@H]1CCCO1)N1CCOCC2(CCN(Cc3cccnc3)C2)C1 (some centres unmarked) gave LdMetRS: 9.302%; Mtb heat-shock: 51.35%.
CN(C(=O)COCc1ccccc1)C1CCN(CC2CCOC2)CC1 (centres unmarked) gave LdMetRS: 11.28%; Mtb heat-shock: -16.15%.
COC(=O)c1ccc(CN2CCC(c3n[nH]c(C)n3)CC2)s1 gave LdMetRS: 5.444%; Mtb heat-shock: -4.42%.
CNC(=O)[C@@H]1CN(C(=O)C2CCC2)C[C@H]1c1ccnc(N2CCCC2)n1 gave LdMetRS: 17.92%.
Cc1nc(C2CCCCC2)sc1C(=O)O gave LdMetRS: 3.819%; Mtb heat-shock: -1.942%.
O=C(NC[C@@H]1CCCN1)c1cc(COc2cccc(C(F)(F)F)c2)[nH]n1 gave LdMetRS: -1.77%; Mtb heat-shock: 6.257%.
C=C(C)COc1cccc(C(=O)N2CCC(O)(c3ccccc3)CC2)c1 gave LdMetRS: 2.997%; Mtb heat-shock: 12.58%.
O=C1CCc2cc(S(=O)(=O)NC(=O)c3ccc4c(c3)OCO4)ccc2N1 gave LdMetRS: 15.27%; Mtb heat-shock: 6.086%.
CC(C)Nc1cc(N2CCC(n3cc(C4CCCC4)nn3)CC2)ncn1 gave LdMetRS: 23.78%; Mtb heat-shock: 5.596%.
COc1cc(N2CCC3(CCN(Cc4nccs4)CC3)C2)ncn1 gave LdMetRS: 16.62%.
CCc1noc(CNc2ccc(CC(=O)N3CCSCC3)cc2)n1 gave LdMetRS: 23.12%; Mtb heat-shock: 24.66%.
CCc1nccn1-c1nccnc1C1CCN(C(=O)COC)CC1 gave LdMetRS: 9.032%; Mtb heat-shock: -29.44%.
CC(C(=O)NCCN1CCCCCC1)n1cncn1 (centres unmarked) gave LdMetRS: 8.661%; Mtb heat-shock: 5.81%.
c1coc(-c2nnc(CN3CCCC(CN4CCCCCC4)C3)o2)c1 (centres unmarked) gave LdMetRS: 16.9%; Mtb heat-shock: 18.47%.
CS(=O)(=O)N1CCC2(CC1)CC(Oc1ccccn1)CO2 (centres unmarked) gave LdMetRS: 10.27%.
CSc1sc2c(O)cc(=O)[nH]c2c1C(N)=O gave LdMetRS: 15.86%; Mtb heat-shock: -5.339%.
COc1ccccc1NCC(=O)Nc1cnn(Cc2ccccn2)c1 gave LdMetRS: -3.495%; Mtb heat-shock: 2.92%.
COc1cc(C)c(CNC(C)c2csc(C)n2)cc1OC (centres unmarked) gave LdMetRS: 16.17%; Mtb heat-shock: -25.58%.
COC(=O)C(C)Sc1nnnn1C1CCOCC1 (centres unmarked) gave LdMetRS: 4.106%; Mtb heat-shock: 0.5332%.
COc1ccc(C[C@H]2CN(C3CCOCC3)CC[C@H]2OCC2CC2)cc1 gave LdMetRS: 8.333%.
CC(=O)N1CCc2c(nc(N(C)C)nc2NCCCn2ccnc2C)C1 gave LdMetRS: 12.47%; Mtb heat-shock: -17.8%.
CC(=O)N1CCN(C(=O)C(C)OCC(F)(F)F)CC1 (centres unmarked) gave LdMetRS: 8.982%; Mtb heat-shock: -10.47%.
CCC(C)Oc1ccccc1CN1Cc2ncccc2C1=O (centres unmarked) gave LdMetRS: 12.05%; Mtb heat-shock: -28.33%.
O=C(C1CN(c2ncc(F)cn2)CC12CCOCC2)N1CCOCC1 (centres unmarked) gave LdMetRS: 10.1%; Mtb heat-shock: 11.79%.
O=S(=O)(c1cccnc1)N1CCCCC1CCN1CCOCC1 (centres unmarked) gave LdMetRS: -2.168%; Mtb heat-shock: -15.68%.
Cn1cc(-c2cnc(N3CCOCC3)nc2)cc1C(=O)N1CCOCC1 gave LdMetRS: 14.98%; Mtb heat-shock: 1.928%.
Cc1cn2c(n1)CCC(NC(=O)c1csc(C(C)C)n1)C2 (centres unmarked) gave LdMetRS: 20.44%; Mtb heat-shock: 38.44%.
CNc1ccnc(NCCC(=O)Nc2ccccc2OC)n1 gave LdMetRS: 11.25%; Mtb heat-shock: 5.545%.
CCCn1ncc(C(=O)N(CCOC)Cc2c(C)nn(CC)c2C)c1C gave LdMetRS: 10.65%; Mtb heat-shock: 0.5988%.
Cc1nc(Nc2ncc(C)s2)cc(C2CCCN2S(C)(=O)=O)n1 (centres unmarked) gave LdMetRS: 14.84%; Mtb heat-shock: -9.231%.
Cc1nnc([C@H]2C[C@@H]3CCN(Cc4cc(C)on4)C[C@H]3O2)[nH]1 gave LdMetRS: 16.25%.
Fc1ccc(CN2CCCC3(COCCN(Cc4c[nH]nn4)C3)C2)cc1.O=C(O)C(F)(F)F.O=C(O)C(F)(F)F (centres unmarked) gave Mtb heat-shock: -10.65%.
CS(=O)(=O)N1CCOC2(CCCN(c3cnccn3)C2)C1 (centres unmarked) gave LdMetRS: 15.24%.
Cn1cc(S(=O)(=O)NCC2CCN(C(=O)Oc3ccccc3)CC2)cn1 gave LdMetRS: 11.18%; Mtb heat-shock: 9.579%.
Brc1ccc(CNCc2nnc3n2CCC3)s1 gave LdMetRS: 18.12%.
Cc1cc(CN2CCC(C(=O)O)(n3ccc(-c4ccco4)n3)CC2)on1 gave LdMetRS: 1.227%; Mtb heat-shock: -5.244%.
Cc1cc2c(C)cc(O)cc2c(=O)o1 gave LdMetRS: 1.504%; Mtb heat-shock: 6.389%.

4 of the entries, repeated:

For Cc1cc2c(C)cc(O)cc2c(=O)o1 the result was LdMetRS: 1.504%; Mtb heat-shock: 6.389%.
For CNS(=O)(=O)Cc1ccc(CNc2cncc(-n3cccn3)n2)cc1 the result was LdMetRS: 10.93%; Mtb heat-shock: 13.12%.
For CC(C)Cn1nnnc1SC(C(=O)NCc1cccnc1)C(C)C (centres unmarked) the result was LdMetRS: 15.1%; Mtb heat-shock: -10.16%.
For CS(=O)(=O)N1CCC2(CC1)CC(Oc1ccccn1)CO2 (centres unmarked) the result was LdMetRS: 10.27%.